Data as given in PubChem BioAssay AID652272 (Drosophila RNAi Screening Center, 2013).
Assay: 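Genome-wide knock-down search for components of Hedgehog signalling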 (primary screen). System: Drosophila clone 8 (Cl8) cells. Knock-down reagent: long dsRNA against Drosophila genes. Detection: 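Firefly light from a Hedgehog-responsive ptc promoter reporter and Renilla reference light, both read on a plate reader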. Reading the numbers: firefly Hh reporter signal: higher = more ptc reporter light; Renilla reference signal: higher = more Renilla control light. Call rule: 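Called a hit if the two-replicate mean z-score lies below -2 or above +3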. Meaning of the calls: active = hit: reporter lowered or raised; inactive = not a hit.
The deposit covers about 21,000 reagents; this is an unselected part of those with a known target gene and a result. Of all reagents, 503 (2.4%) were called active. 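Raw plate light values, not normalised; calls rest on replicate z-scores that were not deposited; hits include reporter decreases as well as increases.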 A plus sign joins genes that one reagent is predicted to hit. Not stated in the record: the amount of reagent, the time to read-out.

target gene | DRSC id | firefly Hh reporter signal, replicate 1 | firefly Hh reporter signal, replicate 2 | firefly Hh reporter signal, replicate 3 | Renilla reference signal, replicate 1 | Renilla reference signal, replicate 2 | Call
Lk | DRSC10022 | 1.91e5 | – | – | 5260 | 5194 | inactive
CG13367 | DRSC18485 | 1.30e5 | 2.51e5 | – | 4843 | 10649 | inactive
CG13367 | DRSC18486 | 1.30e5 | 2.29e5 | – | 4967 | 9985 | inactive
CG11456 | DRSC11665 | 66521 | 40998 | – | 2480 | 1735 | inactive
Aplip1 | DRSC07947 | 1.53e5 | 3.68e5 | – | 4128 | 14496 | inactive
Aplip1 | DRSC08697 | 96647 | 48213 | – | 3312 | 3686 | inactive
CG12084 | DRSC08247 | 1.49e5 | 1.26e5 | – | 7665 | 4819 | inactive
CG12491 + CG34105 | DRSC04008 | 1.52e5 | 2.35e5 | – | 3763 | 10567 | inactive
CG12491 + CG34105 | DRSC04124 | 76087 | 65928 | – | 2310 | 6066 | inactive
CG33493 | DRSC10642 | 90116 | 78592 | 51405 | 9162 | 4800 | inactive
CG34115 | DRSC03840 | 1.50e5 | 3.35e5 | – | 5611 | 16089 | inactive
CG8915 | DRSC20119 | 1.24e5 | 87876 | – | 2998 | 2196 | inactive
Actn3 | DRSC14106 | 87005 | 80377 | – | 2203 | 2272 | inactive

The list goes on (3 carried over from the part before).
target gene | DRSC id | firefly Hh reporter signal, replicate 1 | firefly Hh reporter signal, replicate 2 | firefly Hh reporter signal, replicate 3 | Renilla reference signal, replicate 1 | Renilla reference signal, replicate 2 | Call
CG34115 | DRSC03840 | 1.50e5 | 3.35e5 | – | 5611 | 16089 | inactive
CG8915 | DRSC20119 | 1.24e5 | 87876 | – | 2998 | 2196 | inactive
Actn3 | DRSC14106 | 87005 | 80377 | – | 2203 | 2272 | inactive
CG32590 | DRSC19594 | 93612 | 2.06e5 | – | 2757 | 8560 | inactive
GstD3 | DRSC15571 | 66618 | 73786 | – | 2476 | 2295 | inactive
CG1161 | DRSC12180 | 39989 | 54964 | – | 1772 | 1843 | inactive
Cadps | DRSC21057 | 62048 | 1.75e5 | – | 1221 | 7576 | inactive
Trs23 | DRSC03190 | 90524 | 62596 | – | 1984 | 5370 | inactive
CG9903 | DRSC20213 | 68992 | 2.17e5 | – | 2922 | 9094 | inactive
CG8661 | DRSC20115 | 91872 | 2.16e5 | – | 2473 | 9433 | inactive
CG32971 | DRSC01372 | 98666 | 1.99e5 | – | 2589 | 9445 | inactive
CG42365 | DRSC04266 | 1.02e5 | 55033 | – | 2576 | 4598 | inactive
sinu | DRSC09752 | 6.15e5 | 95975 | – | 4594 | 4594 | inactive
